According to the supplement of paper PMC7661543:
The effect of the compound repeats well; differences between the knockouts mostly do not.

Tested on: BT-20
Assay: relative cell number vs DMSO control (72 h) (% of DMSO); higher = less growth inhibition (more cells)
Experimental: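 QMAP-Seq: a pool of 5 breast cancer cell lines (ZR-75-1, SKBR3, HCC-38, MDA-MB-231, BT-20), each carrying 12 doxycycline-inducible Cas9 sgRNA perturbations (11 knockouts plus non-targeting sgNT), was treated with compounds for 72 h at four 10-fold doses (10 nM-10 uM or 1 nM-1 uM range). Barcodes were amplified and sequenced, and cell number was interpolated from 293T spike-in standard curves. The result is expressed as % of the median of DMSO wells. Two biological replicates.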

COc1cc2nccc(Oc3ccc(NC(=O)Nc4cc(C)on4)c(Cl)c3)c2cc1OC [Tivozanib]
Details	relative cell number
sgRNA knockout: sgATF3, 10 nM	89
sgRNA knockout: sgATF3, 100 nM	83.3
sgRNA knockout: sgATF3, 1000 nM	88.59
sgRNA knockout: sgATF3, 10000 nM	56
sgRNA knockout: sgATF4, 10 nM	109
sgRNA knockout: sgATF4, 100 nM	103
sgRNA knockout: sgATF4, 1000 nM	96
sgRNA knockout: sgATF4, 10000 nM	71.8
sgRNA knockout: sgATF6, 10 nM	92.5
sgRNA knockout: sgATF6, 100 nM	80.6
sgRNA knockout: sgATF6, 1000 nM	100.1
sgRNA knockout: sgATF6, 10000 nM	79.7
sgRNA knockout: sgATG7, 10 nM	92.8
sgRNA knockout: sgATG7, 100 nM	93.9
sgRNA knockout: sgATG7, 1000 nM	95.6
sgRNA knockout: sgATG7, 10000 nM	63.6
sgRNA knockout: sgERN1, 10 nM	82
sgRNA knockout: sgERN1, 100 nM	98.4
sgRNA knockout: sgERN1, 1000 nM	102
sgRNA knockout: sgERN1, 10000 nM	65.6
sgRNA knockout: sgHSF1, 10 nM	109
sgRNA knockout: sgHSF1, 100 nM	98.9
sgRNA knockout: sgHSF1, 1000 nM	100
sgRNA knockout: sgHSF1, 10000 nM	68.9
sgRNA knockout: sgHSF2, 10 nM	88.2
sgRNA knockout: sgHSF2, 100 nM	110
sgRNA knockout: sgHSF2, 1000 nM	92.1
sgRNA knockout: sgHSF2, 10000 nM	71
sgRNA knockout: sgKEAP1, 10 nM	98.1
sgRNA knockout: sgKEAP1, 100 nM	88.9
sgRNA knockout: sgKEAP1, 1000 nM	102
sgRNA knockout: sgKEAP1, 10000 nM	70.2
sgRNA knockout: sgNFE2L2, 10 nM	80.5
sgRNA knockout: sgNFE2L2, 100 nM	96.3
sgRNA knockout: sgNFE2L2, 1000 nM	108
sgRNA knockout: sgNFE2L2, 10000 nM	69.4
sgRNA knockout: sgSLC35F2, 10 nM	80.3
sgRNA knockout: sgSLC35F2, 100 nM	108
sgRNA knockout: sgSLC35F2, 1000 nM	95.8
sgRNA knockout: sgSLC35F2, 10000 nM	64.6
sgRNA knockout: sgXBP1, 10 nM	83.9
sgRNA knockout: sgXBP1, 100 nM	95.5
sgRNA knockout: sgXBP1, 1000 nM	107
sgRNA knockout: sgXBP1, 10000 nM	81.3

CN/C(=N\CCSCc1nc[nH]c1C)NC#N [Cimetidine]
Details	relative cell number
sgRNA knockout: sgATF3, 10 nM	103
sgRNA knockout: sgATF3, 100 nM	93.1
sgRNA knockout: sgATF3, 1000 nM	103
sgRNA knockout: sgATF3, 10000 nM	115
sgRNA knockout: sgATF4, 10 nM	112
sgRNA knockout: sgATF4, 100 nM	96.6
sgRNA knockout: sgATF4, 1000 nM	102.7
sgRNA knockout: sgATF4, 10000 nM	113
sgRNA knockout: sgATF6, 10 nM	109
sgRNA knockout: sgATF6, 100 nM	102
sgRNA knockout: sgATF6, 1000 nM	96.4
sgRNA knockout: sgATF6, 10000 nM	116
sgRNA knockout: sgATG7, 10 nM	112
sgRNA knockout: sgATG7, 100 nM	101
sgRNA knockout: sgATG7, 1000 nM	106
sgRNA knockout: sgATG7, 10000 nM	96
sgRNA knockout: sgERN1, 10 nM	104
sgRNA knockout: sgERN1, 100 nM	114
sgRNA knockout: sgERN1, 1000 nM	95.6
sgRNA knockout: sgERN1, 10000 nM	99.8
sgRNA knockout: sgHSF1, 10 nM	114
sgRNA knockout: sgHSF1, 100 nM	110
sgRNA knockout: sgHSF1, 1000 nM	109
sgRNA knockout: sgHSF1, 10000 nM	99.5
sgRNA knockout: sgHSF2, 10 nM	118
sgRNA knockout: sgHSF2, 100 nM	101
sgRNA knockout: sgHSF2, 1000 nM	103
sgRNA knockout: sgHSF2, 10000 nM	113
sgRNA knockout: sgKEAP1, 10 nM	96.5
sgRNA knockout: sgKEAP1, 100 nM	103
sgRNA knockout: sgKEAP1, 1000 nM	102.4
sgRNA knockout: sgKEAP1, 10000 nM	115
sgRNA knockout: sgNFE2L2, 10 nM	119
sgRNA knockout: sgNFE2L2, 100 nM	130
sgRNA knockout: sgNFE2L2, 1000 nM	104
sgRNA knockout: sgNFE2L2, 10000 nM	121
sgRNA knockout: sgSLC35F2, 10 nM	107
sgRNA knockout: sgSLC35F2, 100 nM	101
sgRNA knockout: sgSLC35F2, 1000 nM	102
sgRNA knockout: sgSLC35F2, 10000 nM	116
sgRNA knockout: sgXBP1, 10 nM	105
sgRNA knockout: sgXBP1, 100 nM	103
sgRNA knockout: sgXBP1, 1000 nM	106
sgRNA knockout: sgXBP1, 10000 nM	110

CC(C)(C)c1cnc(CSc2cnc(NC(=O)C3CCNCC3)s2)o1 [SNS032]
Details	relative cell number
sgRNA knockout: sgATF3, 10 nM	95.5
sgRNA knockout: sgATF3, 100 nM	85.7
sgRNA knockout: sgATF3, 1000 nM	25.76
sgRNA knockout: sgATF3, 10000 nM	28.4
sgRNA knockout: sgATF4, 10 nM	93.3
sgRNA knockout: sgATF4, 100 nM	109
sgRNA knockout: sgATF4, 1000 nM	24.7
sgRNA knockout: sgATF4, 10000 nM	29.4
sgRNA knockout: sgATF6, 10 nM	102
sgRNA knockout: sgATF6, 100 nM	91.3
sgRNA knockout: sgATF6, 1000 nM	22.7
sgRNA knockout: sgATF6, 10000 nM	34.2
sgRNA knockout: sgATG7, 10 nM	84.1
sgRNA knockout: sgATG7, 100 nM	85.4
sgRNA knockout: sgATG7, 1000 nM	24.1
sgRNA knockout: sgATG7, 10000 nM	36.3
sgRNA knockout: sgERN1, 10 nM	112.6
sgRNA knockout: sgERN1, 100 nM	83.1
sgRNA knockout: sgERN1, 1000 nM	28.9
sgRNA knockout: sgERN1, 10000 nM	33.8
sgRNA knockout: sgHSF1, 10 nM	92.3
sgRNA knockout: sgHSF1, 100 nM	77.3
sgRNA knockout: sgHSF1, 1000 nM	22.3
sgRNA knockout: sgHSF1, 10000 nM	36
sgRNA knockout: sgHSF2, 10 nM	88.7
sgRNA knockout: sgHSF2, 100 nM	76.5
sgRNA knockout: sgHSF2, 1000 nM	25.7
sgRNA knockout: sgHSF2, 10000 nM	32.1
sgRNA knockout: sgKEAP1, 10 nM	102
sgRNA knockout: sgKEAP1, 100 nM	86.1
sgRNA knockout: sgKEAP1, 1000 nM	25.5
sgRNA knockout: sgKEAP1, 10000 nM	35.1
sgRNA knockout: sgNFE2L2, 10 nM	110
sgRNA knockout: sgNFE2L2, 100 nM	94
sgRNA knockout: sgNFE2L2, 1000 nM	31
sgRNA knockout: sgNFE2L2, 10000 nM	35.4
sgRNA knockout: sgSLC35F2, 10 nM	91.5
sgRNA knockout: sgSLC35F2, 100 nM	109.3
sgRNA knockout: sgSLC35F2, 1000 nM	26.6
sgRNA knockout: sgSLC35F2, 10000 nM	28.21
sgRNA knockout: sgXBP1, 10 nM	108
sgRNA knockout: sgXBP1, 100 nM	91
sgRNA knockout: sgXBP1, 1000 nM	29
sgRNA knockout: sgXBP1, 10000 nM	27.8
